Values from PubChem BioAssay AID1259308 (NCATS, 2017)

- Purpose: 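Candidate targets for better recombinant protein yield in mammalian cells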 (primary screen)
- Cells: human HEK293 embryonic kidney cells stably expressing firefly luciferase (HEK-CMV-Luc2-Hygro)
- Knock-down reagent: single siRNA against human genes, 0.8 pmol siRNA per well
- Time to read-out: 72 h
- Measured: 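Reporter luminescence and viable-cell signal on separate replicate plates, given as percent of non-targeting control and median/MAD z-scores, plus per-cell luciferase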
- Direction: total luciferase, z-score: higher = more reporter protein produced
- Rule for the call: 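An siRNA counts as active if its total luciferase robust z-score exceeds 3; genes with two or more such siRNAs out of three were retested with fresh siRNAs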
- Calls: active = raised luciferase; inactive = no rise
Here is an unselected part of about 59,000 deposited reagents. Over the whole deposit, about 1,510 (2.6%) were called active. 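Calls use total luciferase alone and ignore viability, so some active siRNAs may act by altering cell number.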 Entries without a mark were called inactive. Further read-outs or replicates are left out here.

{"gene": "KICS2 (GeneID 144577)", "PubChem SID": "SID160758174", "total luciferase, z-score": -0.447}
{"gene": "KICS2 (GeneID 144577)", "PubChem SID": "SID160758175", "total luciferase, z-score": 1.99}
{"gene": "KICS2 (GeneID 144577)", "PubChem SID": "SID160758177", "total luciferase, z-score": 1.29}
{"gene": "MT1M (GeneID 4499)", "PubChem SID": "SID160723934", "total luciferase, z-score": -0.38}
{"gene": "MT1M (GeneID 4499)", "PubChem SID": "SID160733450", "total luciferase, z-score": -0.355}
{"gene": "MT1M (GeneID 4499)", "PubChem SID": "SID160777510", "total luciferase, z-score": -1.07}
{"gene": "GPR137C (GeneID 283554)", "PubChem SID": "SID160762961", "total luciferase, z-score": 0.792}
{"gene": "GPR137C (GeneID 283554)", "PubChem SID": "SID160762963", "total luciferase, z-score": 0.272}
{"gene": "GPR137C (GeneID 283554)", "PubChem SID": "SID160762964", "total luciferase, z-score": 0.796}
{"gene": "VWA7 (GeneID 80737)", "PubChem SID": "SID160750505", "total luciferase, z-score": 0.912}
{"gene": "VWA7 (GeneID 80737)", "PubChem SID": "SID160750506", "total luciferase, z-score": -0.362}
{"gene": "VWA7 (GeneID 80737)", "PubChem SID": "SID160750507", "total luciferase, z-score": 2}
{"gene": "MTFMT (GeneID 123263)", "PubChem SID": "SID160730578", "total luciferase, z-score": 0.304}
{"gene": "MTFMT (GeneID 123263)", "PubChem SID": "SID160756070", "total luciferase, z-score": -1.2}
{"gene": "MTFMT (GeneID 123263)", "PubChem SID": "SID160756071", "total luciferase, z-score": -0.0132}
{"gene": "SKP1P2 (GeneID 728622)", "PubChem SID": "SID160726759", "total luciferase, z-score": -1.04}
{"gene": "SKP1P2 (GeneID 728622)", "PubChem SID": "SID160726760", "total luciferase, z-score": 2.22}
{"gene": "SKP1P2 (GeneID 728622)", "PubChem SID": "SID160771973", "total luciferase, z-score": -3.03}
{"gene": "TAS2R16 (GeneID 50833)", "PubChem SID": "SID160739734", "total luciferase, z-score": 1.76}
{"gene": "TAS2R16 (GeneID 50833)", "PubChem SID": "SID160739735", "total luciferase, z-score": -0.617}
{"gene": "TAS2R16 (GeneID 50833)", "PubChem SID": "SID160739736", "total luciferase, z-score": -0.524}
{"gene": "C2orf15 (GeneID 150590)", "PubChem SID": "SID160758994", "total luciferase, z-score": -0.146}
{"gene": "C2orf15 (GeneID 150590)", "PubChem SID": "SID160758995", "total luciferase, z-score": -0.414}
{"gene": "C2orf15 (GeneID 150590)", "PubChem SID": "SID160758996", "total luciferase, z-score": 1.29}
{"gene": "ATF5 (GeneID 22809)", "PubChem SID": "SID160731398", "total luciferase, z-score": 0.242}
{"gene": "ATF5 (GeneID 22809)", "PubChem SID": "SID160731405", "total luciferase, z-score": 0.604}
{"gene": "ATF5 (GeneID 22809)", "PubChem SID": "SID160731414", "total luciferase, z-score": -0.596}

The list goes on (4 carried over from the part before).
{"gene": "C2orf15 (GeneID 150590)", "PubChem SID": "SID160758996", "total luciferase, z-score": 1.29}
{"gene": "ATF5 (GeneID 22809)", "PubChem SID": "SID160731398", "total luciferase, z-score": 0.242}
{"gene": "ATF5 (GeneID 22809)", "PubChem SID": "SID160731405", "total luciferase, z-score": 0.604}
{"gene": "ATF5 (GeneID 22809)", "PubChem SID": "SID160731414", "total luciferase, z-score": -0.596}
{"gene": "HNRNPA3 (GeneID 220988)", "PubChem SID": "SID160761561", "total luciferase, z-score": 0.227}
{"gene": "HNRNPA3 (GeneID 220988)", "PubChem SID": "SID160761562", "total luciferase, z-score": 1.14}
{"gene": "HNRNPA3 (GeneID 220988)", "PubChem SID": "SID160761563", "total luciferase, z-score": 2.84}
{"gene": "VPS53 (GeneID 55275)", "PubChem SID": "SID160743406", "total luciferase, z-score": -0.356}
{"gene": "VPS53 (GeneID 55275)", "PubChem SID": "SID160743408", "total luciferase, z-score": 0.209}
{"gene": "VPS53 (GeneID 55275)", "PubChem SID": "SID160743409", "total luciferase, z-score": 0.755}
{"gene": "BAG1 (GeneID 573)", "PubChem SID": "SID160722795", "total luciferase, z-score": 1.25}
{"gene": "BAG1 (GeneID 573)", "PubChem SID": "SID160722804", "total luciferase, z-score": 2.24}
{"gene": "BAG1 (GeneID 573)", "PubChem SID": "SID160722815", "total luciferase, z-score": 0.0105}
{"gene": "LOC440895 (GeneID 440895)", "PubChem SID": "SID160767881", "total luciferase, z-score": 0.986}
{"gene": "LOC440895 (GeneID 440895)", "PubChem SID": "SID160767882", "total luciferase, z-score": -1.08}
{"gene": "LOC440895 (GeneID 440895)", "PubChem SID": "SID160767883", "total luciferase, z-score": -1.52}
{"gene": "IL24 (GeneID 11009)", "PubChem SID": "SID160729727", "total luciferase, z-score": 0.603}
{"gene": "IL24 (GeneID 11009)", "PubChem SID": "SID160729728", "total luciferase, z-score": -1.43}
{"gene": "IL24 (GeneID 11009)", "PubChem SID": "SID160729729", "total luciferase, z-score": 2.73}
